This is one part of the list.
Assays:
Experiment in all cases: log2 fold change, soluble protein after heating vs DMSO (PISA); higher = thermal stabilisation; K562 lysate, 10 uM; active = over 0.2 and 3.5 SD of the protein, either way, in both replicates (recomputed)
[1] = compound: CC1=C2C(=CC=C1)N=C(N(C2=O)C3=CC=CC=C3C)CN4C=NC5=C(N=CN=C54)N
Outline: (§1)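 Log-two fold change in thermal stability relative to solvent controls is reported from duplicates. For each sample, crude K562 extract from dounce-homogenised pellets in PBS pH 7.4 with 1 mM MgCl2, at 1 mg/mL protein, was treated with 10 μM compound for 30 min. Aliquots heated for 3 min across 48°C-58°C were pooled, brought to 0.5% NP-40 at 4°C and cleared at 21,000xg for 90 min. The supernatant was quantified by TMTpro 16plex LC-MS/MS with channel sums equalised.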

The chains behind the UniProt entries cited, without tags or fusion partners. Where a name states a change or a piece, a line headed by the entry shows the natural chain unless it says otherwise.
UniProt Q9NZM1: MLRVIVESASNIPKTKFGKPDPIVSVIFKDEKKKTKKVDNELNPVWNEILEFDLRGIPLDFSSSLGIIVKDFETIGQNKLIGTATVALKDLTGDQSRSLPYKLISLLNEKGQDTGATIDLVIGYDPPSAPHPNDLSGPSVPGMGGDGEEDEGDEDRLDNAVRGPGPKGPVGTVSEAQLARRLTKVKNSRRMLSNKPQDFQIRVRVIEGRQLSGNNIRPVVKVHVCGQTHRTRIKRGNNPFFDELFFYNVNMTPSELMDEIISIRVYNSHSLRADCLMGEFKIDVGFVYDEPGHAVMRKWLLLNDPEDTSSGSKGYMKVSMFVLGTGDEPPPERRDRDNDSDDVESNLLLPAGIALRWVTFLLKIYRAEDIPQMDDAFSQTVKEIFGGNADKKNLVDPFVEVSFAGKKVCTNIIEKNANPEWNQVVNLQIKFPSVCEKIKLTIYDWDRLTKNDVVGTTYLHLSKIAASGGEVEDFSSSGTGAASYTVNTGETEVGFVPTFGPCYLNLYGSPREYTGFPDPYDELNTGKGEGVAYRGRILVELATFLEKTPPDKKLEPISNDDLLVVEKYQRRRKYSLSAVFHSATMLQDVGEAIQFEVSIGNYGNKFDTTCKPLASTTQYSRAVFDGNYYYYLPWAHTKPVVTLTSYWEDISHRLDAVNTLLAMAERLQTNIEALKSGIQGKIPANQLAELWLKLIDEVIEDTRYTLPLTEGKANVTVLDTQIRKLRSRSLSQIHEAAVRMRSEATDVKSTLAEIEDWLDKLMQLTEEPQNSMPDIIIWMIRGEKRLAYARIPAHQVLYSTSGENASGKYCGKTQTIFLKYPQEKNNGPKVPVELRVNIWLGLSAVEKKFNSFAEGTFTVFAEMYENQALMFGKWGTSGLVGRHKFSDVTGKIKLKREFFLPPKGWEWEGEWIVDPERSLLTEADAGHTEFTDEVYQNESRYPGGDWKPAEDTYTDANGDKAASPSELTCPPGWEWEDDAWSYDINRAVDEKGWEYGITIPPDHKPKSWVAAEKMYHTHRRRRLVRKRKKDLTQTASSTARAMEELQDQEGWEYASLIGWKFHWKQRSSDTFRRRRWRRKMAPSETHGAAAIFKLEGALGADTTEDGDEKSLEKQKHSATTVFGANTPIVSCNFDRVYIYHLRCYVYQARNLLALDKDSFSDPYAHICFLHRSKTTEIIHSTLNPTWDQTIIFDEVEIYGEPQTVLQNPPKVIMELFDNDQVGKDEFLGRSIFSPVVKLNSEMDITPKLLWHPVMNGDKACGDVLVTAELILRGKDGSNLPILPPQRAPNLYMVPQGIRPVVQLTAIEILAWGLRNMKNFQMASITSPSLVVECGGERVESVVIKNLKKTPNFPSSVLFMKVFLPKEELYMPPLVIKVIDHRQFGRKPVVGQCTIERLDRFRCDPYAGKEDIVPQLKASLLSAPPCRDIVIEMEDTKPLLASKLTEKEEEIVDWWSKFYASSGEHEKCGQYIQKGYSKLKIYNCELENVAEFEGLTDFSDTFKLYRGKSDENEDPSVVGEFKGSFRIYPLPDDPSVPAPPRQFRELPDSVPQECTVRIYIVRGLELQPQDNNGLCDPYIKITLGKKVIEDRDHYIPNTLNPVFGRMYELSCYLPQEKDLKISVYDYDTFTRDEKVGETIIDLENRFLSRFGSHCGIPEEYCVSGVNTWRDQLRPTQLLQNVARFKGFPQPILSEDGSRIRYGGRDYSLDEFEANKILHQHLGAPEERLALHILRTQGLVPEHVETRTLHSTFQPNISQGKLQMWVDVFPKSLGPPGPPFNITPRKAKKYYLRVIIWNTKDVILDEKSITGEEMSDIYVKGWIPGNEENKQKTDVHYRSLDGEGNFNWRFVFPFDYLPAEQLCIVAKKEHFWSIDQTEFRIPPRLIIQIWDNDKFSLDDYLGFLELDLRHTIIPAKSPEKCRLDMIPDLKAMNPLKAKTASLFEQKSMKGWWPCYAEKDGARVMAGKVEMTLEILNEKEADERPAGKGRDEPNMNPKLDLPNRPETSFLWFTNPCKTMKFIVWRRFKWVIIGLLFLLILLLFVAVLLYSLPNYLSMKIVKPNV
UniProt Q9HD67, whole entry, looked up: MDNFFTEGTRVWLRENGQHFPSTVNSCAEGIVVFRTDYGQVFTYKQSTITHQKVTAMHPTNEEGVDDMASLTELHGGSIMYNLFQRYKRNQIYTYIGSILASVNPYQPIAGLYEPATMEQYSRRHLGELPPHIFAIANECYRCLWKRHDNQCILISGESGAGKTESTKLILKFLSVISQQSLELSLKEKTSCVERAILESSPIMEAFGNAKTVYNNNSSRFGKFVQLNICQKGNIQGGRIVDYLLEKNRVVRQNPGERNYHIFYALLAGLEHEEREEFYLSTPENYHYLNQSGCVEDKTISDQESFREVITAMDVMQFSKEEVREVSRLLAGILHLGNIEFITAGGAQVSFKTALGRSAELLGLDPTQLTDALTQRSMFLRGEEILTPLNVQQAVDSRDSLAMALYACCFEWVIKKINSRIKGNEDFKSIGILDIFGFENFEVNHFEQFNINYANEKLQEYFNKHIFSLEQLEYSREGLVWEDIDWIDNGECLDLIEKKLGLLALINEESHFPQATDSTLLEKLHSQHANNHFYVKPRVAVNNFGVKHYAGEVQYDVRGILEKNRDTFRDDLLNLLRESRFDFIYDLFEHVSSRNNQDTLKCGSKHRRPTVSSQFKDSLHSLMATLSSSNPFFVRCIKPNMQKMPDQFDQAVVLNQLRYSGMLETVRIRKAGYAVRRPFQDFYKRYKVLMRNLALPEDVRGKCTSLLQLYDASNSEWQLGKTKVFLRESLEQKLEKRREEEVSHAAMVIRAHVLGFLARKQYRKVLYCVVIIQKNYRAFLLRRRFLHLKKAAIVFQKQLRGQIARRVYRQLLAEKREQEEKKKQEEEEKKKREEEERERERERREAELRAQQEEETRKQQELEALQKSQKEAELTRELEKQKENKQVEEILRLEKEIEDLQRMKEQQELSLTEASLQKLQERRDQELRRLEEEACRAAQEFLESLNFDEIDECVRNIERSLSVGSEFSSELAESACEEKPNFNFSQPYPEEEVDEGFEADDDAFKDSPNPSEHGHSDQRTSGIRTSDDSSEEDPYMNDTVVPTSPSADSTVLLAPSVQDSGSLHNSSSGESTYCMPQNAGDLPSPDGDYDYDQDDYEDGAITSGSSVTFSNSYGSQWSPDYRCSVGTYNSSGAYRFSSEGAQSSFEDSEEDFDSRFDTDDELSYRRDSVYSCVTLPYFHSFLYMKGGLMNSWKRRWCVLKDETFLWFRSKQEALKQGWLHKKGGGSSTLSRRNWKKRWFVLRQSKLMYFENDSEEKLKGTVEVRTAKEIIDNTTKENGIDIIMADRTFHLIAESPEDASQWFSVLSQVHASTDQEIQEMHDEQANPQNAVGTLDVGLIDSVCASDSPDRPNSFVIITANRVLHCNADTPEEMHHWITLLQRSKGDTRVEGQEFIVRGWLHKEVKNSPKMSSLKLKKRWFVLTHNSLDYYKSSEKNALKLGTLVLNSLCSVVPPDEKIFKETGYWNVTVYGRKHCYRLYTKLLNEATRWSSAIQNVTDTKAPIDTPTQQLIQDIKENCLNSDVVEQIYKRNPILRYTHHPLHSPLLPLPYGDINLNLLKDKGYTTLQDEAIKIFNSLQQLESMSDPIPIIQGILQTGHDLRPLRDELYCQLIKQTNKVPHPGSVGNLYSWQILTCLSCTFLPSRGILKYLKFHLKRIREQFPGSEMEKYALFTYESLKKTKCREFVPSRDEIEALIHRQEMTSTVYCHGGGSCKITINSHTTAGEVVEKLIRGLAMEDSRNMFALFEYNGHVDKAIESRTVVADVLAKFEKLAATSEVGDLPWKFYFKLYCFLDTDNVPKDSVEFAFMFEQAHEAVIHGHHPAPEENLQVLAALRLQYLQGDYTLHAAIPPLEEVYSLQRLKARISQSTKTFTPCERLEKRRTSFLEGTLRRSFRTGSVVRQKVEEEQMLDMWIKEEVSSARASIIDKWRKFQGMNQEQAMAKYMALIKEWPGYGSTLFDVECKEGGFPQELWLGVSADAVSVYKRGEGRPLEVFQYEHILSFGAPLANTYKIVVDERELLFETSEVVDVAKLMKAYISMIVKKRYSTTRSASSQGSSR
UniProt Q9BQ15: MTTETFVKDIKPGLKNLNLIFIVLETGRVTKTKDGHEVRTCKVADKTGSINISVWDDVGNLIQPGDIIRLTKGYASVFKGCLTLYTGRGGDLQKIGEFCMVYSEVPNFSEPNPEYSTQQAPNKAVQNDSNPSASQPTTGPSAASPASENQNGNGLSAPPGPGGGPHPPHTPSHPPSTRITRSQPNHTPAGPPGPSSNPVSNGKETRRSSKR
UniProt Q9UK23: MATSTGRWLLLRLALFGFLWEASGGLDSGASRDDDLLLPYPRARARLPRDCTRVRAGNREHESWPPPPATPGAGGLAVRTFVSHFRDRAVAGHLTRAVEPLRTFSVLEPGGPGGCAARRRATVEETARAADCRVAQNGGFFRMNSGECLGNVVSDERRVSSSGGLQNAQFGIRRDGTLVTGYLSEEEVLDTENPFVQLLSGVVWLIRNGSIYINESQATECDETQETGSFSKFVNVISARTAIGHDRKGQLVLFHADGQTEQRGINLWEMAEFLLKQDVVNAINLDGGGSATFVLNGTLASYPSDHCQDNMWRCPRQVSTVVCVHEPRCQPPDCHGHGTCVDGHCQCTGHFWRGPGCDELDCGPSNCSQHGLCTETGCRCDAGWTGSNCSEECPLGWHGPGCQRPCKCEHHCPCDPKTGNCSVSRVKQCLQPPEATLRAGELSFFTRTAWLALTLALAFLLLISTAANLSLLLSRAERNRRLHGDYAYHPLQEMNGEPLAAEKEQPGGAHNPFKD
UniProt G3V1V0: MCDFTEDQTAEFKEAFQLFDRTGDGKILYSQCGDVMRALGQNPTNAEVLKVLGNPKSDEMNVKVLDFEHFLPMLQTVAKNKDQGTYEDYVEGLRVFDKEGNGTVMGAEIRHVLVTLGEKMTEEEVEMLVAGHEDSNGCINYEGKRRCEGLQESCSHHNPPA
UniProt Q5TBK1: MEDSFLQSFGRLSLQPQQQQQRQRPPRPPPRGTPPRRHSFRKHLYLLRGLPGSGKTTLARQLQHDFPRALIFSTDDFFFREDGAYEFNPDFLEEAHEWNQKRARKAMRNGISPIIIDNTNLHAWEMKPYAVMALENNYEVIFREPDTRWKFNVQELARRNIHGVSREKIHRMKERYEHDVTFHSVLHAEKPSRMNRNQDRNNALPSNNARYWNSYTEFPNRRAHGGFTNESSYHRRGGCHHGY
UniProt Q9HCH0: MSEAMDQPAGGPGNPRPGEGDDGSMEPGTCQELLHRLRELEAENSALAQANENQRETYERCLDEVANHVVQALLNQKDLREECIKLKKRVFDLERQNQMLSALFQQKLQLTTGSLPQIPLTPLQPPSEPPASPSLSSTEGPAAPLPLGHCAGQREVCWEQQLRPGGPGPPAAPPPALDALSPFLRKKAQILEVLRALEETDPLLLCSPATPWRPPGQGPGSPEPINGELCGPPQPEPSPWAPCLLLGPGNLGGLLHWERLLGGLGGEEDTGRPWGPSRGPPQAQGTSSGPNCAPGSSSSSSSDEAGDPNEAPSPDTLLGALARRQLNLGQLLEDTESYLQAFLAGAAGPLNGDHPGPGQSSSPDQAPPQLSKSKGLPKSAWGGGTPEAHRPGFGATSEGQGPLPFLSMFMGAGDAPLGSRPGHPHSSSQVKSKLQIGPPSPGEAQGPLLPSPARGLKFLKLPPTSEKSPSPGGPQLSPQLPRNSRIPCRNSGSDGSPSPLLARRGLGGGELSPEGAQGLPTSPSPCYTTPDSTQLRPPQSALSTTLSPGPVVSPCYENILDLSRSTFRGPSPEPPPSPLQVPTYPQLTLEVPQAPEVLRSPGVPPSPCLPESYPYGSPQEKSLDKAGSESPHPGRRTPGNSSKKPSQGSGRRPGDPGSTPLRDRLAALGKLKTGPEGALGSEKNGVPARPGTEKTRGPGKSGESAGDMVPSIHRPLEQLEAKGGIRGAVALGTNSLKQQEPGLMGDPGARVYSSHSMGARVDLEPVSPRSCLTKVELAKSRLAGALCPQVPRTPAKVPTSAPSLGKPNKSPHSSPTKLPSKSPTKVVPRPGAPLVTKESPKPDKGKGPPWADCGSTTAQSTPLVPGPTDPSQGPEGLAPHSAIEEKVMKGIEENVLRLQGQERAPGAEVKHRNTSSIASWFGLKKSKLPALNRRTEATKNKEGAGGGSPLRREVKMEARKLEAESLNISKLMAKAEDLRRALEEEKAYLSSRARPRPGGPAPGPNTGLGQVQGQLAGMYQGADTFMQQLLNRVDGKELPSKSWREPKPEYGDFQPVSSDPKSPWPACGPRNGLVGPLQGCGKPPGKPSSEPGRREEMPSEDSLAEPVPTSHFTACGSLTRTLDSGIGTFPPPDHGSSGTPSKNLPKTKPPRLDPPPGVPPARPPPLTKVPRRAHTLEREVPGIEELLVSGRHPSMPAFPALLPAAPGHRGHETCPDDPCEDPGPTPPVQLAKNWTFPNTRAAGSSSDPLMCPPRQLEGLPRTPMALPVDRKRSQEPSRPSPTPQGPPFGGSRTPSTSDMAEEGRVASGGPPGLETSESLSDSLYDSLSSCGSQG

[2] = compound: Cc1sc2c(c1C)C(c1ccc(Cl)cc1)=N[C@@H](CC(=O)OC(C)(C)C)c1nnc(C)n1-2
Outline: as §1

[3] = compound: C1=CC=C(C=C1)[C@H](COC2=CC3=C(C=C2)NC(=O)N3)NC(=O)C4=CC=CN(C4=O)CC5=CC(=C(C=C5)F)F
Outline: as §1

[4] = compound: CC1=C(SC2=C1C(=N[C@H](C3=NN=C(N32)C)CC(=O)N)C4=CC=C(C=C4)Cl)C
Outline: as §1

[5] = compound: c1ccc([C@@H]2C[C@H]2NC2CCNCC2)cc1
Outline: as §1

Measured: log2 fold change

NABP1 (UniProt Q96AH0)
inactive: [1] -0.08

NACA2 (UniProt Q9H009)
inactive: [2] -0.028

MYOF (UniProt Q9NZM1)
inactive: [2] -0.096

MYO10 (UniProt Q9HD67)
inactive: [3] -0.122 | [4] 0.104 | [1] 0.165 | [5] 0.024

NABP2 (UniProt Q9BQ15)
inactive: [3] 0.007 | [4] -0.121 | [1] 0.031 | [2] 0.059 | [5] -0.017

MYLK3 (UniProt Q32MK0)
inactive: [3] 0.061 | [4] -0.064 | [5] -0.039

NAGPA (UniProt Q9UK23)
inactive: [3] -0.055 | [4] 0.014 | [1] -0.017 | [2] -0.204 | [5] 0.049

NACC2 (UniProt Q96BF6)
inactive: [1] -0.054 | [2] -0.056 | [5] -0.083

MYO1G (UniProt B0I1T2)
inactive: [3] -0.159 | [4] 0.003 | [2] 0.054 | [5] 0.332

MYL6 (UniProt G3V1V0)
inactive: [1] -0.066 | [2] -0.214 | [5] -0.231

N4BP2L1 (UniProt Q5TBK1)
inactive: [3] -0.153 | [4] 0.068 | [1] -0.021 | [5] -0.287

NCKAP5L (UniProt Q9HCH0)
inactive: [2] -0.071 | [5] 0.073

MYL6 (UniProt P60660)
inactive: [3] -0.041 | [4] -0.066 | [1] 0.001 | [2] -0.003 | [5] 0.016

Quoted from above (two entries):
NAGPA (UniProt Q9UK23)
inactive: [3] -0.055 | [4] 0.014 | [1] -0.017 | [2] -0.204 | [5] 0.049

NACC2 (UniProt Q96BF6)
inactive: [1] -0.054 | [2] -0.056 | [5] -0.083
